# The supplement of paper PMC3334620
# The full ranking holds about 33,000 sequences; the median of “E-score (-0.5 to 0.5)” is about -0.015, and the highest 2% start at about 0.3. The list shows a part of the results.
# Biological target: T1, Abf1 (UniProt P14164)
# T1 sequence: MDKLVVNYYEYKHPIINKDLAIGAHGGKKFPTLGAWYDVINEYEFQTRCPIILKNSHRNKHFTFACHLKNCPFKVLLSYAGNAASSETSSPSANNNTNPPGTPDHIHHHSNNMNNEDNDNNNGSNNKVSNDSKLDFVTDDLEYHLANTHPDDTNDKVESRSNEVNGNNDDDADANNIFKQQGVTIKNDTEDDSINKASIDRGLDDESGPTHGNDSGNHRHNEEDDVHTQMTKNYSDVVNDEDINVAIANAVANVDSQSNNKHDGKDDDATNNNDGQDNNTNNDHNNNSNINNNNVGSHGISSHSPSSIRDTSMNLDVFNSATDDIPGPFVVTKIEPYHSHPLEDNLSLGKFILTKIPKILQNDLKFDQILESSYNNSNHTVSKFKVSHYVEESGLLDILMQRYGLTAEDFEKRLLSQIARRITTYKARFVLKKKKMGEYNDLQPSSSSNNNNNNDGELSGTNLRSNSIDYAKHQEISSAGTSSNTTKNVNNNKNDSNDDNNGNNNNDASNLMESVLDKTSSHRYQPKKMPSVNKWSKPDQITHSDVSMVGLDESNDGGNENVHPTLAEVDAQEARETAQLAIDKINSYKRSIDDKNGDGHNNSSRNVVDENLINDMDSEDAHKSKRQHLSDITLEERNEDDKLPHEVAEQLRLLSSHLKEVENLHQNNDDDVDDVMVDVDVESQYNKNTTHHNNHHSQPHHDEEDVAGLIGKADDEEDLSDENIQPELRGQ
# Experiment: PBM E-score (8-mer binding enrichment) (E-score (-0.5 to 0.5)); higher = stronger / more preferred TF binding
# Settings: protein concentration: 200 nM; construct: GST-full length
# How it was run: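 Each ungapped eight-base word and its reverse complement, pooled, received an E-score from the Universal PBM Analysis Suite. Underlying scans, normalised with masliner, recorded fluorescent anti-GST bound to GST-tagged yeast transcription factors. These were applied at about 100-200 nM to universal all-10-mer Agilent arrays double-stranded by primer extension.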
row,Sequence,PBM E-score
1,GCACTGGC,0.0001
2,AACGGTAG,-0.0289
3,GAAAAGCA,-0.104
4,CACCAGAC,-0.0164
5,GATCGTGC,0.244
6,CTTCGAAG,-0.105
7,GCAAGCAA,0.181
8,AATTGGAG,-0.0849
9,CCGCCGCC,-0.107
10,ACTCGTCC,0.274
11,GAGCACAA,-0.0779
12,CATGCGAC,0.15
13,CAAATTTA,0.0786
14,CTCCGTGC,0.0314
15,ACAGGGAC,-0.088
16,AGATAGAA,-0.00652
17,ATCAACAG,0.0752
18,GGTATATA,0.161
19,AGCTCCAT,-0.235
20,ACACTATA,0.0499
21,GTCTATAA,0.022
22,CATGAGGC,-0.201
23,TAAACCCA,0.0331
24,CTTATCGA,0.144
25,ATTGGGGC,-0.095

row,Sequence,PBM E-score
1,AAGGCCCG,-0.325
2,AGCATATG,-0.0516
3,AAGATAGG,-0.151
4,ACAAATCG,0.178
5,CCCCTCAC,-0.135
6,CCTAGGAC,-0.206
7,GAGTCAGC,-0.0946
8,GCGATGCC,-0.123
9,GTGAGCAA,0.0803
10,ATTCACAC,-0.0104
11,GCTACGCA,-0.0831
12,AAGAGCGT,-0.00842
13,AGACATGA,0.171
14,GGAACTTA,0.0435
15,GCTTCTGA,-0.0397
16,GGCCTCCC,-0.31
17,ACTCCCAT,-0.029
18,ACTGCAGT,-0.0247
19,AGGGCCAG,-0.145
20,TGCTTCCA,-0.231
21,CTTCTGGA,-0.284
22,AGAATTCA,-0.00123
23,ACACATTG,0.00282
24,ACGAACAT,0.237
25,CGCTGTAA,-0.0975

row,Sequence,PBM E-score
1,CCGGGACG,-0.132
2,CATCTCCA,-0.025
3,ATTTTCGG,0.145
4,ATTGACTG,0.00827
5,TTATACAA,0.113
6,GTCATCTA,0.183
7,GACATGCC,0.0181
8,AGAAATCT,0.00508
9,GGGATTAA,-0.0401
10,ATAAGGAA,-0.234
11,CAATAGCG,-0.144
12,CTATTAAC,0.122
13,GTGTTGCA,0.0765
14,AGCCCTAC,-0.0851
15,ACATCCGC,-0.00592
16,ATCAGCCG,-0.0221
17,TGGGAGAA,-0.155
18,ACTCCCAG,-0.115
19,ACAGGATG,0.0931
20,CATCCGAC,0.151
21,ACAGGAGA,0.0304
22,AAATTCGC,0.0441
23,CCTTAATC,-0.128
24,CGCTGCTC,-0.0119
25,CTTTGGAA,-0.0263

# Four records drawn at random from those above, as already listed:
row,Sequence,PBM E-score
6,GTCATCTA,0.183
9,CCGCCGCC,-0.107
22,AGAATTCA,-0.00123
5,CCCCTCAC,-0.135

# (listing goes on)

row,Sequence,PBM E-score
1,CGGATATA,0.185
2,CCGACAGG,-0.0487
3,CAATACAG,-0.0786
4,ATCGCGTG,0.23
5,CTACAATC,0.164
6,CAACGCCC,-0.181
7,CGGCTTGA,-0.0107
8,TAAACAAA,0.118
9,AATGTTAT,0.105
10,ACCACCCC,-0.265
11,ACTTAAAG,-0.173
12,CCAGCACC,-0.289
13,CCTTACCA,-0.135
14,CTGTTAAC,0.0149
15,CACCTCTA,0.0679
16,GGCCAGTA,-0.125
17,AGATCCCG,0.117
18,CGATCAGC,-0.0419
19,AAGGTTAG,-0.108
20,ACTCTCAA,-0.0983
21,AGGCTACA,-0.265
22,CGTATTTA,0.335
23,CAGGGCCC,-0.279
24,AGCTTCTG,-0.16
25,GGCACTGA,-0.136

row,Sequence,PBM E-score
1,CTAACTTC,0.00313
2,AACGTGCC,-0.0898
3,AATGTGCG,0.0693
4,ACAAAGGC,-0.241
5,AGAACATC,0.0178
6,ATGAGGGC,-0.18
7,GCTTCAAA,0.17
8,GGACCTCA,-0.0312
9,GTCGCGAC,0.32
10,CCGCAAGC,-0.209
11,CGGTAAGC,-0.159
12,AGCTTAAA,0.0797
13,AACCTATG,-0.0835
14,ACTGATTC,-0.146
15,GAAATTCA,0.0636
16,CTTAGCAA,-0.168
17,CACGTGCA,0.139
18,GACATAAC,0.143
19,CACAGAGC,-0.139
20,AGATTTTG,0.125
21,ACTCAAGT,-0.0617
22,GGGCTACA,-0.109
23,TGCGGACA,-0.056
24,AGTGTAGG,0.029
25,GCGCTTAC,-0.11

row,Sequence,PBM E-score
1,AACAACAT,0.00732
2,CACCCGCA,-0.205
3,CATCGATA,0.232
4,GGCGCCAC,-0.0143
5,CAGCTTCC,-0.151
6,GTGGGAAC,0.00825
7,CGCCGACG,-0.0196
8,ACACCCCC,-0.266
9,GCCAGCAA,-0.252
10,GGCGGACC,-0.2
11,CCCGTTGA,0.0316
12,CTAAACAC,-0.0276
13,ACGACTAA,0.0761
14,AAAGTAAG,0.0225
15,CATCGGGC,0.0177
16,TGGATACA,-0.00372
17,ACCGCCCT,-0.266
18,CAGATTGC,-0.156
19,GGCGGGAA,-0.151
20,CTCATCCC,0.0517
21,ACGACTAT,0.298
22,CACCTCAG,-0.141
23,CGTGAGGC,-0.0028
24,CAAGGCCA,-0.0916
25,AGGGATCG,-0.119

row,Sequence,PBM E-score
1,ATTTAGTC,0.163
2,GCCAACTA,-0.0314
3,CCCGTGTC,0.0681
4,CAGAGGAA,-0.148
5,TGTCGTAA,0.103
6,CCATTCGC,-0.219
7,CGAAAAGC,-0.151
8,GATTCCGC,-0.0622
9,TCCAAGCA,-0.093
10,CACGGTCG,-0.0181
11,TCTAGGCA,-0.0845
12,CTGTCTAA,0.107
13,CGCGAGGA,-0.201
14,ACTTGTAA,0.0799
15,AAATAAGC,0.0205
16,GCTGGTCC,-0.0476
17,AATATGTC,0.19
18,CGGTACCG,0.0321
19,ATCGTAAC,0.258
20,ACGGTGGG,0.122
21,GGCTTTTA,-0.236
22,ACTAGGCC,-0.235

# Part of the list above, bar-delimited.
row | Sequence | PBM E-score
12 | CTGTCTAA | 0.107
13 | CGCGAGGA | -0.201

# Copied from above (5 entries):
row,Sequence,PBM E-score
15,GAAATTCA,0.0636
16,CTTAGCAA,-0.168
17,CACGTGCA,0.139
18,GACATAAC,0.143
19,CACAGAGC,-0.139
